Literature values as cited in patent publication US20080268492A1, “Methods for Determining Optimal Techniques for Vitrification of Isolated Cells” (THE CURATORS OF THE UNIVERSITY OF MISSOURI, priority 2007, published 2008).
At least one structure is not confirmed: it was looked up by name or label, or the drawing left a doubt.

System: in vivo matured MII human oocytes
Settings: 24° C; cited from earlier work

Compound | average permeability
C[S+](C)[O-] [DMSO, dimethylsulfoxide] | 16.8 μm/min
CC(O)CO (centres unmarked) [PG] | 15.0 μm/min
